# Measurements published in patent publication US6491729B1.
# Legend:
# [1] = tensile strength (load weight, displacement, stress, specific stress, strain at the maximum load point); conditions: dyed fabric of wool
# [2] = as above; conditions: undyed fabric of gray nylon goods
# [3] = bursting strength and softness of fabric; conditions: dyed fabric of polyester/rayon
# [4] = bursting strength and softness of fabric; conditions: dyed fabric of cotton
# [5] = bursting strength and softness of fabric; conditions: dyed fabric of polyester/cotton
# [6] = bursting strength and softness of fabric; conditions: undyed fabric of gray cotton goods
# [7] = bursting strength and softness of fabric; conditions: undyed fabric of gray wool goods
# [8] = yellowness index, whiteness index and Lab values of undyed fabric, Example 9; conditions: gray nylon goods
# [9] = as above; conditions: gray polyester goods
smiles,measurement,setting,value
ClC(Cl)=C(Cl)Cl [perchloroethylene],displacement,[1]; dry-cleaned five times,75.31 mm
same,load weight,[1]; dry-cleaned five times,13.92 kg
same,specific stress,[1]; dry-cleaned five times,13.92 kg/L
same,strain,[1]; dry-cleaned five times,37.66%
same,stress,[1]; dry-cleaned five times,0.7 kg/mm^2
same,displacement,[1]; dry-cleaned one time,81.25 mm
same,load weight,[1]; dry-cleaned one time,16.65 kg
same,specific stress,[1]; dry-cleaned one time,16.65 kg/L
same,strain,[1]; dry-cleaned one time,40.62%
same,stress,[1]; dry-cleaned one time,0.83 kg/mm^2
same,displacement,[1]; dry-cleaned two times,69.71 mm
same,load weight,[1]; dry-cleaned two times,15.38 kg
same,specific stress,[1]; dry-cleaned two times,15.38 kg/L
same,strain,[1]; dry-cleaned two times,34.85%
same,stress,[1]; dry-cleaned two times,0.77 kg/mm^2
same,displacement,[2]; dry-cleaned five times,63.23 mm
same,load weight,[2]; dry-cleaned five times,32.28 kg
same,specific stress,[2]; dry-cleaned five times,32.28 kg/L
same,strain,[2]; dry-cleaned five times,31.62%
same,stress,[2]; dry-cleaned five times,6.46 kg/mm^2
same,displacement,[2]; dry-cleaned one time,65.96 mm
same,load weight,[2]; dry-cleaned one time,32.81 kg
same,specific stress,[2]; dry-cleaned one time,32.81 kg/L
same,strain,[2]; dry-cleaned one time,32.98%
same,stress,[2]; dry-cleaned one time,6.56 kg/mm^2
same,displacement,[2]; dry-cleaned two times,59.26 mm
same,load weight,[2]; dry-cleaned two times,28.29 kg
same,specific stress,[2]; dry-cleaned two times,28.29 kg/L
same,strain,[2]; dry-cleaned two times,29.63%
same,stress,[2]; dry-cleaned two times,5.66 kg/mm^2
same,bursting strength,[3]; dry-cleaned five times,26 kg · f/cm^2
same,bursting strength percentage of variation,[3]; dry-cleaned five times,0%
same,softness,[3]; dry-cleaned five times,2.3 cm
same,softness percentage of variation,[3]; dry-cleaned five times,−12.55%
same,bursting strength,[3]; dry-cleaned one time,25.5 kg · f/cm^2
same,bursting strength percentage of variation,[3]; dry-cleaned one time,−1.92%
same,softness,[3]; dry-cleaned one time,2.6 cm
same,softness percentage of variation,[3]; dry-cleaned one time,−1.14%
same,bursting strength,[3]; dry-cleaned two times,27.25 kg · f/cm^2
same,bursting strength percentage of variation,[3]; dry-cleaned two times,14.81%
same,softness,[3]; dry-cleaned two times,2.5 cm
same,softness percentage of variation,[3]; dry-cleaned two times,−4.94%
same,bursting strength,[4]; dry-cleaned five times,11.5 kg · f/cm^2
same,bursting strength percentage of variation,[4]; dry-cleaned five times,−14.57%
same,softness,[4]; dry-cleaned five times,2.9 cm
same,softness percentage of variation,[4]; dry-cleaned five times,0.35%
same,bursting strength,[4]; dry-cleaned one time,12.25 kg · f/cm^2
same,bursting strength percentage of variation,[4]; dry-cleaned one time,4.97%
same,softness,[4]; dry-cleaned one time,3.4 cm
same,softness percentage of variation,[4]; dry-cleaned one time,58.14%
same,bursting strength,[4]; dry-cleaned two times,12 kg · f/cm^2
same,bursting strength percentage of variation,[4]; dry-cleaned two times,2.83%
same,softness,[4]; dry-cleaned two times,3 cm
same,softness percentage of variation,[4]; dry-cleaned two times,39.53%
same,bursting strength,[5]; dry-cleaned five times,11.5 kg · f/cm^2
same,bursting strength percentage of variation,[5]; dry-cleaned five times,−4.17%
same,softness,[5]; dry-cleaned five times,2.7 cm
same,softness percentage of variation,[5]; dry-cleaned five times,2.66%
same,bursting strength,[5]; dry-cleaned one time,2 kg · f/cm^2
same,bursting strength percentage of variation,[5]; dry-cleaned one time,0%
same,softness,[5]; dry-cleaned one time,2.45 cm
same,softness percentage of variation,[5]; dry-cleaned one time,−6.84%
same,bursting strength,[5]; dry-cleaned two times,12 kg · f/cm^2
same,bursting strength percentage of variation,[5]; dry-cleaned two times,0%
same,softness,[5]; dry-cleaned two times,3 cm
same,softness percentage of variation,[5]; dry-cleaned two times,14.07%
same,bursting strength,[6]; dry-cleaned five times,11.5 kg · f/cm^2
same,bursting strength percentage of variation,[6]; dry-cleaned five times,−14.81%
same,softness,[6]; dry-cleaned five times,4.1 cm
same,softness percentage of variation,[6]; dry-cleaned five times,−24.07%
same,bursting strength,[6]; dry-cleaned one time,12.75 kg · f/cm^2
same,bursting strength percentage of variation,[6]; dry-cleaned one time,−5.56%
same,softness,[6]; dry-cleaned one time,6.3 cm
same,softness percentage of variation,[6]; dry-cleaned one time,16.67%
same,bursting strength,[6]; dry-cleaned two times,12.75 kg · f/cm^2
same,bursting strength percentage of variation,[6]; dry-cleaned two times,−5.56%
same,softness,[6]; dry-cleaned two times,5.1 cm
same,softness percentage of variation,[6]; dry-cleaned two times,−5.56%
same,bursting strength,[7]; dry-cleaned five times,22.25 kg · f/cm^2
same,bursting strength percentage of variation,[7]; dry-cleaned five times,−0.76%
same,softness,[7]; dry-cleaned five times,3.9 cm
same,softness percentage of variation,[7]; dry-cleaned five times,2.63%
same,bursting strength,[7]; dry-cleaned one time,21.75 kg · f/cm^2
same,bursting strength percentage of variation,[7]; dry-cleaned one time,−3%
same,softness,[7]; dry-cleaned one time,3.9 cm
same,softness percentage of variation,[7]; dry-cleaned one time,2.63%
same,bursting strength,[7]; dry-cleaned two times,21 kg · f/cm^2
same,bursting strength percentage of variation,[7]; dry-cleaned two times,−6.33%
same,softness,[7]; dry-cleaned two times,4 cm
same,softness percentage of variation,[7]; dry-cleaned two times,5.26%
same,L,[8]; dry-cleaned five times,78.04
same,a,[8]; dry-cleaned five times,0.25
same,b,[8]; dry-cleaned five times,−7.41
same,c,[8]; dry-cleaned five times,7.42
same,h,[8]; dry-cleaned five times,271.9
same,ΔE,[8]; dry-cleaned five times,8.49
same,ΔL,[8]; dry-cleaned five times,−8.47
same,Δa,[8]; dry-cleaned five times,0.26
same,Δb,[8]; dry-cleaned five times,−0.43
same,Δc,[8]; dry-cleaned five times,0.43
same,Δh,[8]; dry-cleaned five times,0.25
same,L,[8]; dry-cleaned one time,77.88
same,a,[8]; dry-cleaned one time,0.21
same,b,[8]; dry-cleaned one time,−7.42
same,c,[8]; dry-cleaned one time,7.43
same,h,[8]; dry-cleaned one time,271.61
same,ΔE,[8]; dry-cleaned one time,8.65
same,ΔL,[8]; dry-cleaned one time,−8.64
same,Δa,[8]; dry-cleaned one time,0.22
same,Δb,[8]; dry-cleaned one time,−0.44
same,Δc,[8]; dry-cleaned one time,0.44
same,Δh,[8]; dry-cleaned one time,0.22
same,L,[8]; dry-cleaned two times,78.9
same,a,[8]; dry-cleaned two times,0.15
same,b,[8]; dry-cleaned two times,−7.2
same,c,[8]; dry-cleaned two times,7.21
same,h,[8]; dry-cleaned two times,271.19
same,ΔE,[8]; dry-cleaned two times,7.62
same,ΔL,[8]; dry-cleaned two times,−7.62
same,Δa,[8]; dry-cleaned two times,0.16
same,Δb,[8]; dry-cleaned two times,−0.22
same,Δc,[8]; dry-cleaned two times,0.22
same,Δh,[8]; dry-cleaned two times,0.16
same,L,[9]; dry-cleaned five times,83.65
same,a,[9]; dry-cleaned five times,0.44
same,b,[9]; dry-cleaned five times,−5.81
same,c,[9]; dry-cleaned five times,5.83
same,h,[9]; dry-cleaned five times,274.29
same,ΔE,[9]; dry-cleaned five times,4.47
same,ΔL,[9]; dry-cleaned five times,−4.18
same,Δa,[9]; dry-cleaned five times,0.31
same,Δb,[9]; dry-cleaned five times,1.56
same,Δc,[9]; dry-cleaned five times,−1.54
same,Δh,[9]; dry-cleaned five times,0.38
same,L,[9]; dry-cleaned one time,83.3
same,a,[9]; dry-cleaned one time,0.38
same,b,[9]; dry-cleaned one time,−5.57
same,c,[9]; dry-cleaned one time,5.58
same,h,[9]; dry-cleaned one time,273.87
same,ΔE,[9]; dry-cleaned one time,4.88
same,ΔL,[9]; dry-cleaned one time,−4.53
same,Δa,[9]; dry-cleaned one time,0.25
same,Δb,[9]; dry-cleaned one time,1.81
same,Δc,[9]; dry-cleaned one time,1.79
same,Δh,[9]; dry-cleaned one time,0.33
same,L,[9]; dry-cleaned two times,88.14
same,a,[9]; dry-cleaned two times,0.18
same,b,[9]; dry-cleaned two times,−6.6
same,c,[9]; dry-cleaned two times,6.6
same,h,[9]; dry-cleaned two times,271.58
same,ΔE,[9]; dry-cleaned two times,4.47
same,ΔL,[9]; dry-cleaned two times,−4.18
same,Δa,[9]; dry-cleaned two times,0.31
same,Δb,[9]; dry-cleaned two times,1.56
same,Δc,[9]; dry-cleaned two times,−1.54
same,Δh,[9]; dry-cleaned two times,0.38
